Laboratory results as given in the supplement of paper PMC10849652.
The list shows a part of the results. Residues, ends and D or L forms follow the SMILES beside them. *: point of attachment. Cbz = O=C(OCc1ccccc1)*

Protein sequences, listed by entry. Tags and fused reporters are not part of them. Lines headed by an entry give the natural chain unless they say otherwise; changes in a name come on top.
UniProt Q6PJG9: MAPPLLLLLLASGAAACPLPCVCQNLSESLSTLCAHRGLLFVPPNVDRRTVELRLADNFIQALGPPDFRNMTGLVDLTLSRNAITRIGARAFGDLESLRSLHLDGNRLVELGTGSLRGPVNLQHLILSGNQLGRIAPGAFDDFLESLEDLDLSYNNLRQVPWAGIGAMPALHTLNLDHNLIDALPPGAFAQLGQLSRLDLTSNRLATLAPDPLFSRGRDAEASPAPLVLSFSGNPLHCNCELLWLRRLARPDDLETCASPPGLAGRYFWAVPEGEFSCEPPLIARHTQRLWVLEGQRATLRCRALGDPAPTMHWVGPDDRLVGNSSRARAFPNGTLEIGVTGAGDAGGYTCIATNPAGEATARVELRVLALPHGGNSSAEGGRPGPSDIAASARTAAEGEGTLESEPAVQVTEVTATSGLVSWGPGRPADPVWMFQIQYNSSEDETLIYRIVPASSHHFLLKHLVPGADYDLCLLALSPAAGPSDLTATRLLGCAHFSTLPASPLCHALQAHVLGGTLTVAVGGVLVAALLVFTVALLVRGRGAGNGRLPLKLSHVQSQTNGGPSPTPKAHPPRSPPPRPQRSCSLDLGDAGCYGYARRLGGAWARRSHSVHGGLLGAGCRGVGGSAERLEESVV
UniProt O00214: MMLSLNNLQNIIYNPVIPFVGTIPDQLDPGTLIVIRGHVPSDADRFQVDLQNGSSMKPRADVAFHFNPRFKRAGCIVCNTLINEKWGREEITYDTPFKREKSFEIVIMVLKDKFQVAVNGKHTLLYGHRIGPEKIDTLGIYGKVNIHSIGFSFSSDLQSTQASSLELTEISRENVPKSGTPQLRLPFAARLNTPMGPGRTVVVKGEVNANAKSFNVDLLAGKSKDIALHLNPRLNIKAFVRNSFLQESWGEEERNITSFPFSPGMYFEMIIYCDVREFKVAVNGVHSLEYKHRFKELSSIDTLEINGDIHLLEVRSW
UniProt Q9BQK8: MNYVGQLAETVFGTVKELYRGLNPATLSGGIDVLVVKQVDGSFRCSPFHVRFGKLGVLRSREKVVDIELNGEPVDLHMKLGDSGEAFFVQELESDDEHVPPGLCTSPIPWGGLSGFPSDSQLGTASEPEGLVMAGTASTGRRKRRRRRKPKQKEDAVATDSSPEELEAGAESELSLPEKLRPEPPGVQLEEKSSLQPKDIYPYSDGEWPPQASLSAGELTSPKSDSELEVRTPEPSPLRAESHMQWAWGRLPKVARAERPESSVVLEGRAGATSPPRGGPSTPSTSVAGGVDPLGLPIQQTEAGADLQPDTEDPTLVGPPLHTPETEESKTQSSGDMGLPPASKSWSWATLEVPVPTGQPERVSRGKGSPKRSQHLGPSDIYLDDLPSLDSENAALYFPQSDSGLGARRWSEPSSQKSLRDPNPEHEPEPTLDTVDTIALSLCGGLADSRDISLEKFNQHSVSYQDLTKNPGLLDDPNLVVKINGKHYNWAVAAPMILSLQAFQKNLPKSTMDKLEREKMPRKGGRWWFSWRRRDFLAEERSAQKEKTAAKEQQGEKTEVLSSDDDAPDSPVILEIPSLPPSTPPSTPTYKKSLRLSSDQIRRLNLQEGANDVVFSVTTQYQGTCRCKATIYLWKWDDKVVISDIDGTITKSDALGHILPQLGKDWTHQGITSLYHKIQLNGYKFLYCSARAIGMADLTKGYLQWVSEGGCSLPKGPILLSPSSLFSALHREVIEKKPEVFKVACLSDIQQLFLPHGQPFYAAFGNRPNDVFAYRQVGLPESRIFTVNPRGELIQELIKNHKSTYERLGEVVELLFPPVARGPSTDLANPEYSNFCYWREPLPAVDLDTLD
UniProt P13473: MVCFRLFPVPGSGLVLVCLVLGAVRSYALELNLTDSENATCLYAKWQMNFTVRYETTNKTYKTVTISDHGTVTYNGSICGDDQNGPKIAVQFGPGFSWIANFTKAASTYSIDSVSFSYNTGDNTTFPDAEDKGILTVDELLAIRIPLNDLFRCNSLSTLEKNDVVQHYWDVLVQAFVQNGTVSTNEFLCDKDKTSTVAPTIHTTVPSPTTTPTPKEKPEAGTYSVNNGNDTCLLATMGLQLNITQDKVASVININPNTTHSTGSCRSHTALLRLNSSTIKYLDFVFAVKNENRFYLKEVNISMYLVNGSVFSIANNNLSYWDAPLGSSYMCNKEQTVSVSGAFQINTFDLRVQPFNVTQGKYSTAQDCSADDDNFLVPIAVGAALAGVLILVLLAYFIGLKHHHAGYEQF
UniProt Q9NUN5: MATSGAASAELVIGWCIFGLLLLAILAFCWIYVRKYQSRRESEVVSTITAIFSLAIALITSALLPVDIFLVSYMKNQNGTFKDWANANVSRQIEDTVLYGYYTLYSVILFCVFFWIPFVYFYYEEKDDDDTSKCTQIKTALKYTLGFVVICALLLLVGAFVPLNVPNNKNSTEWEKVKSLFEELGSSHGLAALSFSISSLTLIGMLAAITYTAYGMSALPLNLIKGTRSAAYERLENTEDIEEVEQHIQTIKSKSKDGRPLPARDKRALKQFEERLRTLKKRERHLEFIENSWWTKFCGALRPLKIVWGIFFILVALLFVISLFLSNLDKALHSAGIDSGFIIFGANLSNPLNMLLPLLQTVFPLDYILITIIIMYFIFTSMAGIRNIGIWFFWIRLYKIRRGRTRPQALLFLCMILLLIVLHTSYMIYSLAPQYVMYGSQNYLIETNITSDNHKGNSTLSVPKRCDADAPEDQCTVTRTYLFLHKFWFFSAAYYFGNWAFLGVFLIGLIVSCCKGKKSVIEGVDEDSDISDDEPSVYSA
UniProt P02750: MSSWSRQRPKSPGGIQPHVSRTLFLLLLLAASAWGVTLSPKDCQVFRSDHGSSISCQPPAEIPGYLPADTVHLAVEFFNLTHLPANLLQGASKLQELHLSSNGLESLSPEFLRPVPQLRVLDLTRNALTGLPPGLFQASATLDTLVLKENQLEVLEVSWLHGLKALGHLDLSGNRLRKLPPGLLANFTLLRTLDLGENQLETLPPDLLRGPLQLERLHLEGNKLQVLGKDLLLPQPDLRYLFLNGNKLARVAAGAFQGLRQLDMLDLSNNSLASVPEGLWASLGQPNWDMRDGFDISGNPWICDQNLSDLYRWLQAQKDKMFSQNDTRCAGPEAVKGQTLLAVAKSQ
UniProt Q5SW96: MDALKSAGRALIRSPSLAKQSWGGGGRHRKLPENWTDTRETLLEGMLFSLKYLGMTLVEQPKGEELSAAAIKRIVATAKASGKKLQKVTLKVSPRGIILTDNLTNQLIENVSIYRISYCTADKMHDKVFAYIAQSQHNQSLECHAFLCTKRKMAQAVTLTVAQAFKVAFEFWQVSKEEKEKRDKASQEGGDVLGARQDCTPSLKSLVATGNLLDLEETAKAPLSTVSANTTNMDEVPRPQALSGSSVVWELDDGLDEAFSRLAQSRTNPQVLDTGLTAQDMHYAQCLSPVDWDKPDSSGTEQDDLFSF
UniProt Q9UIQ6, whole entry, looked up: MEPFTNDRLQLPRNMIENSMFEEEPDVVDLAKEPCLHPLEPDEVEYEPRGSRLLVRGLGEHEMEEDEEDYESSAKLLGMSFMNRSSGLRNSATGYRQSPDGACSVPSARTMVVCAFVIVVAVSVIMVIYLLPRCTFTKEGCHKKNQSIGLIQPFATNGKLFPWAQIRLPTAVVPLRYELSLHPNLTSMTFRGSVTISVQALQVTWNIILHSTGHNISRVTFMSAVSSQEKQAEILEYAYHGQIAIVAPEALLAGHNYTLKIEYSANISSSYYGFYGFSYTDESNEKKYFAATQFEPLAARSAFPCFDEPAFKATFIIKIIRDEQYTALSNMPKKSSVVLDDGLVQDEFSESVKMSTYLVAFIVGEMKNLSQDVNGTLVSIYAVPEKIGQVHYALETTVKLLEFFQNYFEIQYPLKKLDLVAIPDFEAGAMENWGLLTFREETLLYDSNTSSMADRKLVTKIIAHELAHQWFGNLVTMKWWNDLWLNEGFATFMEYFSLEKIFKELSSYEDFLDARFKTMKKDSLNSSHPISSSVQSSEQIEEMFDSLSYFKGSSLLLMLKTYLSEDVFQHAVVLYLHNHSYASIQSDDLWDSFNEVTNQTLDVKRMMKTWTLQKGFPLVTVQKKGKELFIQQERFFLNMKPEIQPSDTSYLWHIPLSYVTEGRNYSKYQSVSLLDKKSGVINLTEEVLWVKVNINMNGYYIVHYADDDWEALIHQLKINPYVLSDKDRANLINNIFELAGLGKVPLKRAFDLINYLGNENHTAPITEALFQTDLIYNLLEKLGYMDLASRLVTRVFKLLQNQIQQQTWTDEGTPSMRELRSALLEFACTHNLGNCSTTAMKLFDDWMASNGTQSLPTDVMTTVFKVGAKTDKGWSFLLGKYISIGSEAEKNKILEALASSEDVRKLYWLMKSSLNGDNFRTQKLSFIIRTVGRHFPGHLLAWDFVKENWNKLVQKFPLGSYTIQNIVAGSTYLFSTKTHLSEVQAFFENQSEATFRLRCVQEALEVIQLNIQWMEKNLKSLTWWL
UniProt Q92615, whole entry, looked up: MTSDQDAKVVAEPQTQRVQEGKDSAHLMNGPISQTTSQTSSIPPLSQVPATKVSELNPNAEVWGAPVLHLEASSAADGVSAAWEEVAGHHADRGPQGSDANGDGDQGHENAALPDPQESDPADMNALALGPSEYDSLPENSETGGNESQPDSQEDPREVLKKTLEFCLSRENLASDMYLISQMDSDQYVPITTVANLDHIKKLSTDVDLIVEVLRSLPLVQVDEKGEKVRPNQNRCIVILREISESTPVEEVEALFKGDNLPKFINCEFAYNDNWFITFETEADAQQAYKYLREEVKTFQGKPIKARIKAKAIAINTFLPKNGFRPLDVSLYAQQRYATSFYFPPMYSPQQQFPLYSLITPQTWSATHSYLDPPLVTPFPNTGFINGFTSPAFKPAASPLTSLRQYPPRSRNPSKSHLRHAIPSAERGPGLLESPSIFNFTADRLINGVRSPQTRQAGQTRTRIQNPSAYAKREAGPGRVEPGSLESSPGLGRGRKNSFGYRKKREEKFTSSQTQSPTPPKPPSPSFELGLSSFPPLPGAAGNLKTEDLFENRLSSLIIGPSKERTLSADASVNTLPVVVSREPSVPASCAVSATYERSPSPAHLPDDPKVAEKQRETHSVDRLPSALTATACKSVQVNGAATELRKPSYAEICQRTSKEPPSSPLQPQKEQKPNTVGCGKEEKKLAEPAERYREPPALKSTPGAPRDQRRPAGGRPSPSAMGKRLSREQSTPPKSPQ

Key:
Experiment in all cases: log2 fold change, soluble protein after heating vs DMSO (PISA); higher = thermal stabilisation; K562 cells, 10 uM, 30 min; active = over 0.2 and 3.5 SD of the protein, either way, in both replicates (recomputed)
erlotinib = compound: C#Cc1cccc(Nc2ncnc3cc(OCCOC)c(OCCOC)cc23)c1 [erlotinib]
Procedure, shortened: (§1)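 Values are thermal stability changes relative to control samples and are taken from duplicates. They are stated as log2 fold changes. Before quantification by TMTpro 16plex LC-MS/MS with equalised channel sums, K562 cells at 2×10^6 cells/mL were treated with 10 μM compound for 30 min, heated in aliquots for 3 min across 48°C-58°C, pooled, extracted in PBS with 0.5% NP-40 at 4°C, and centrifuged at 21,000xg for 90 min to give the soluble supernatant.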

[1] = compound: C/C(=N\NC(=O)C1=CC(=CC=C1)S(=O)(=O)N2CCOCC2)/C3=C(C=CC(=C3)Cl)O
Procedure, shortened: as §1

[2] = compound: C1=CC(=C(C=C1Cl)C2=NC3=NC=CN=C3C(=N2)NC4=CC=NC=C4)F
Procedure, shortened: as §1

[3] = compound: C1=CC(=CC=C1C2=NC3=C(N2)C=C(C=C3)C(=O)N)OC4=CC=C(C=C4)Cl
Procedure, shortened: as §1

[4] = compound: C1=CC2=C(C=CC(=C2)/C=C\3/C(=O)NC(=NCC4=CC=CS4)S3)N=C1
Procedure, shortened: as §1

[5] = compound: C1=CC2=NC=CN=C2C=C1/C=C/3\C(=O)NC(=O)S3
Procedure, shortened: as §1

[6] = compound: C1=CC=C(C=C1)C2=NC(=C(N2)C3=CC=NC=C3)C4=CC(=C(C=C4)Cl)O
Procedure, shortened: as §1

[7] = compound: C1=CC=C2C(=C1)C3=NNC4=CC=CC(=C43)C2=O
Procedure, shortened: as §1

[8] = compound: C1CCN(C1)C(=O)NC2=CC=CC(=C2)NC3=NC=C(C(=N3)NCCC4=CN=CN4)Br
Procedure, shortened: as §1

[9] = compound: C1CN(CCC1(CC2=CC=C(C=C2)Cl)N)C3=NC=NC4=C3C=CN4
Procedure, shortened: as §1

IRAK-1-4 Inhibitor I = compound: C1COCCN1CCN2C3=CC=CC=C3N=C2NC(=O)C4=CC(=CC=C4)[N+](=O)[O-] [IRAK-1-4 Inhibitor I]
Procedure, shortened: as §1

ibrutinib = compound: C=CC(=O)N1CCC[C@@H](n2nc(-c3ccc(Oc4ccccc4)cc3)c3c(N)ncnc32)C1 [ibrutinib]
Procedure, shortened: as §1

[10] = compound: CC(=O)c1cnc2ccc(-c3cc(Cl)c(O)c(Cl)c3)nc2c1N[C@H]1CC[C@H](CN(C)C)CC1
Procedure, shortened: as §1

ralimetinib = compound: CC(C)(C)Cn1c(N)nc2ccc(-c3[nH]c(C(C)(C)C)nc3-c3ccc(F)cc3)nc21 [ralimetinib]
Procedure, shortened: as §1

[11] = compound: CC(C)(O)CC(=O)NCCn1ccc2ncnc(Nc3ccc(Oc4cccc(C(F)(F)F)c4)c(Cl)c3)c21
Procedure, shortened: as §1

[12] = compound: CC(C)C1=C2N=C(C=C(N2N=C1)NCC3=CC=CC=C3)NCCCCCCN
Procedure, shortened: as §1

[13] = compound: CC(C)C[C@@H](C=O)NC(=O)[C@H](CC(C)C)NC(=O)[C@H](CC(C)C)NC(=O)OCc1ccccc1
Procedure, shortened: as §1

pinometostat = compound: CC(C)N(C[C@H]1O[C@@H](n2cnc3c(N)ncnc32)[C@H](O)[C@@H]1O)[C@H]1C[C@@H](CCc2nc3cc(C(C)(C)C)ccc3[nH]2)C1 [pinometostat]
Procedure, shortened: as §1

[14] = compound: CC1=C(C2=C(C=C1)C(=O)C3=CC=CC=C3N2CCCN)C
Procedure, shortened: as §1

For LRFN4 (UniProt Q6PJG9), the log2 fold change (erlotinib) was inactive: -0.168, the log2 fold change [1] was inactive: -0.156 and the log2 fold change [2] was inactive: 0.047. The log2 fold change [3] was inactive: -0.251, the log2 fold change [4] was inactive: 0.02 and the log2 fold change [5] was inactive: 0.094. The log2 fold change [6] was inactive: 0.022, the log2 fold change [7] was inactive: 0.05 and the log2 fold change [8] was inactive: -0.181. The log2 fold change [9] was inactive: -0.052, the log2 fold change (IRAK-1-4 Inhibitor I) was inactive: 0.007 and the log2 fold change (ibrutinib) was inactive: 0.089. For the same target, the log2 fold change [10] was inactive: -0.134, the log2 fold change (ralimetinib) was inactive: -0.049 and the log2 fold change [11] was inactive: -0.062. The log2 fold change [12] was inactive: -0.063, the log2 fold change [13] was inactive: 0.086 and the log2 fold change (pinometostat) was inactive: -0.094. For the same target, the log2 fold change [14] was inactive: 0.05.
In the case of LRBA (UniProt P50851), the log2 fold change (erlotinib) is reported as inactive: 0.007, the log2 fold change [1] is reported as inactive: 0.024 and the log2 fold change [2] is reported as inactive: 0.068. For the same target, the log2 fold change [3] was inactive: 0.002, the log2 fold change [4] was inactive: 0.031 and the log2 fold change [5] was inactive: 0.051. The log2 fold change [6] was inactive: 0.011, the log2 fold change [7] was inactive: -0.002 and the log2 fold change [8] was inactive: 0.012. For the same target, the log2 fold change [9] was inactive: 0.015, the log2 fold change (IRAK-1-4 Inhibitor I) was inactive: 0.015 and the log2 fold change (ibrutinib) was inactive: -0.02. For the same target, the log2 fold change [10] was inactive: -0.006, the log2 fold change (ralimetinib) was inactive: -0.023 and the log2 fold change [11] was inactive: -0.059. For the same target, the log2 fold change [12] was inactive: -0.091, the log2 fold change [13] was inactive: 0.005 and the log2 fold change (pinometostat) was inactive: 0.008. For the same target, the log2 fold change [14] was inactive: -0.004.
For LGALS8 isoform 2 (UniProt O00214), the log2 fold change (erlotinib) was inactive: -0.011, the log2 fold change [1] was inactive: -0.034 and the log2 fold change [2] was inactive: -0.282. For the same target, the log2 fold change [3] was inactive: 0.062, the log2 fold change [4] was inactive: -0.038 and the log2 fold change [5] was inactive: -0.059. The log2 fold change [7] was inactive: 0.036, the log2 fold change [8] was inactive: 0.043 and the log2 fold change [9] was inactive: 0.039. For the same target, the log2 fold change (IRAK-1-4 Inhibitor I) was inactive: -0.027, the log2 fold change (ibrutinib) was inactive: -0.262 and the log2 fold change [10] was inactive: 0.049. The log2 fold change [11] was inactive: 0.092, the log2 fold change [12] was inactive: 0.123 and the log2 fold change (pinometostat) was inactive: 0.11. The log2 fold change [14] was inactive: 0.096.
In the case of LPIN3 isoform 2 (UniProt Q9BQK8), the log2 fold change (erlotinib) is reported as inactive: 0.053, the log2 fold change [1] is reported as inactive: 0.062 and the log2 fold change [2] is reported as inactive: 0.038. For the same target, the log2 fold change [3] was inactive: -0.045, the log2 fold change [4] was inactive: 0.108 and the log2 fold change [5] was inactive: 0.022. The log2 fold change [6] was inactive: -0.048, the log2 fold change [7] was inactive: 0.022 and the log2 fold change [8] was inactive: 0.002. The log2 fold change [9] was inactive: -0.014, the log2 fold change (ibrutinib) was inactive: -0.041 and the log2 fold change [10] was inactive: -0.164. The log2 fold change (ralimetinib) was inactive: -0.024, the log2 fold change [11] was inactive: -0.14 and the log2 fold change [12] was inactive: 0.027. For the same target, the log2 fold change [13] was inactive: 0.073 and the log2 fold change [14] was inactive: 0.099.
With LAMP2 isoform 2 (UniProt P13473) the log2 fold change (erlotinib) was inactive: -0.072, the log2 fold change [1] was inactive: 0.02 and the log2 fold change [2] was inactive: 0.041. The log2 fold change [3] was inactive: 0.082, the log2 fold change [4] was inactive: -0.022 and the log2 fold change [5] was inactive: 0.088. The log2 fold change [7] was inactive: -0.007, the log2 fold change [8] was inactive: 0.018 and the log2 fold change [9] was inactive: 0.049. For the same target, the log2 fold change (IRAK-1-4 Inhibitor I) was inactive: 0.127, the log2 fold change (ibrutinib) was inactive: -0.007 and the log2 fold change [10] was inactive: 0.012. The log2 fold change [11] was inactive: 0.115, the log2 fold change [12] was active: -0.713 and the log2 fold change (pinometostat) was inactive: -0.026. For the same target, the log2 fold change [14] was inactive: -0.078.
For LMBRD1 (UniProt Q9NUN5), the log2 fold change (erlotinib) was inactive: 0.075, the log2 fold change [1] was inactive: -0.055 and the log2 fold change [2] was inactive: 0.211. For the same target, the log2 fold change [3] was inactive: -0.014, the log2 fold change [4] was inactive: 0.226 and the log2 fold change [5] was inactive: 0.113. The log2 fold change [6] was inactive: -0.051, the log2 fold change [7] was inactive: -0.027 and the log2 fold change [8] was inactive: -0.142. For the same target, the log2 fold change [9] was inactive: 0.033, the log2 fold change (ibrutinib) was inactive: 0.036 and the log2 fold change [10] was inactive: 0.026. The log2 fold change (ralimetinib) was inactive: 0.088, the log2 fold change [11] was inactive: -0.059 and the log2 fold change [12] was active: -0.708. For the same target, the log2 fold change [13] was inactive: -0.022 and the log2 fold change [14] was inactive: -0.086.
For LRG1 (UniProt P02750), the log2 fold change (erlotinib) was inactive: 0.053, the log2 fold change [2] was inactive: 0.306 and the log2 fold change [3] was inactive: -0.425. The log2 fold change [6] was inactive: -0.074, the log2 fold change [8] was inactive: -0.108 and the log2 fold change [9] was inactive: -0.028. For the same target, the log2 fold change (IRAK-1-4 Inhibitor I) was inactive: 0.016, the log2 fold change (ralimetinib) was inactive: -0.301 and the log2 fold change [11] was inactive: 0.291. The log2 fold change [12] was inactive: 0.069, the log2 fold change [13] was inactive: -0.075 and the log2 fold change (pinometostat) was inactive: 0.015. The log2 fold change [14] was inactive: -0.182.
For LDLRAP1 (UniProt Q5SW96), the log2 fold change (erlotinib) was inactive: -0.017, the log2 fold change [3] was inactive: 0.252 and the log2 fold change [5] was inactive: 0.199. For the same target, the log2 fold change [6] was inactive: -0.118, the log2 fold change (IRAK-1-4 Inhibitor I) was inactive: 0.013 and the log2 fold change (ibrutinib) was inactive: -0.177. The log2 fold change (ralimetinib) was inactive: -0.032, the log2 fold change [12] was active: -0.541 and the log2 fold change [13] was inactive: 0.028. For the same target, the log2 fold change (pinometostat) was inactive: 0.318.
For LNPEP (UniProt Q9UIQ6), the log2 fold change (erlotinib) was inactive: -0.005, the log2 fold change [1] was inactive: -0.002 and the log2 fold change [2] was inactive: 0.046. For the same target, the log2 fold change [3] was inactive: 0.016, the log2 fold change [4] was inactive: 0.019 and the log2 fold change [5] was inactive: 0.034. For the same target, the log2 fold change [6] was inactive: 0.067, the log2 fold change [7] was inactive: -0.008 and the log2 fold change [8] was inactive: -0.01. For the same target, the log2 fold change [9] was inactive: 0.042, the log2 fold change (IRAK-1-4 Inhibitor I) was inactive: 0.015 and the log2 fold change (ibrutinib) was inactive: 0.021. For the same target, the log2 fold change [10] was inactive: -0.021, the log2 fold change (ralimetinib) was inactive: 0.005 and the log2 fold change [11] was inactive: -0.02. For the same target, the log2 fold change [12] was inactive: 0.014, the log2 fold change [13] was inactive: 0 and the log2 fold change (pinometostat) was inactive: -0.018. For the same target, the log2 fold change [14] was inactive: 0.016.
In the case of LARP4B (UniProt Q92615), the log2 fold change (erlotinib) is reported as inactive: -0.016, the log2 fold change [1] is reported as inactive: 0.032 and the log2 fold change [2] is reported as inactive: -0.042. For the same target, the log2 fold change [3] was inactive: 0.017, the log2 fold change [4] was inactive: -0.057 and the log2 fold change [5] was inactive: -0.03. The log2 fold change [6] was inactive: 0.063, the log2 fold change [7] was inactive: -0.06 and the log2 fold change [8] was inactive: -0.013. For the same target, the log2 fold change [9] was inactive: -0.042, the log2 fold change (IRAK-1-4 Inhibitor I) was inactive: -0.122 and the log2 fold change (ibrutinib) was inactive: 0.007. The log2 fold change [10] was inactive: -0.048, the log2 fold change (ralimetinib) was inactive: 0.135 and the log2 fold change [11] was inactive: 0.018. For the same target, the log2 fold change [12] was inactive: -0.213, the log2 fold change [13] was inactive: 0.002 and the log2 fold change (pinometostat) was inactive: 0.143. For the same target, the log2 fold change [14] was inactive: 0.034.
